Results published in PubChem BioAssay (NCATS).
This list was built around the results that the source calls inconclusive (neither active nor inactive); the mix of calls is not that of the screen. A potency beside an inconclusive call is a rough fit, not a confirmed value. Calls of active or inactive are those of the source. Calls come from the whole dose curve; as a rule, active = well fitted cell-killing curve with a large enough effect; inconclusive = small, poorly fitted or top-dose-only effect; inactive = no such curve, though single readings can be large or run the other way.

Assay: Quantitative High-Throughput drug screen in 47 multiple myeloma cell lines against the NCATS MIPE library collection: JIM3_ECACC cell viability assay (AID 1918963; note: nearly all actives have a fitted effect of over 35% in size)
Conditions: JIM3 myeloma viability, CellTiter-Glo ATP, 48 h; viability, percent of control: at 45.8 µM (top of the series)
Source text: PI: Beverly A. Mock Ph.D.
Laboratory of Cancer Biology and Genetics,
Center for Cancer Research, National Cancer Institute,
National Institute of Health, Bethesda, Maryland
Drug resistance and disease progression are common in multiple myeloma (MM) patients, underscoring the need for new therapeutic combinations. […] We hypothesized that effective combinations would reduce MYC expression and enhance p16 activity. […] These preclinical data identify potentially useful drug combinations for evaluation in drug-resistant MM and reveal potential mechanisms of combined drug sensitivity.
Described herein is the primary MIPE qHTS used to cherrypick compounds. Validated compounds were then further tested for potential synergistic activiy.
[1] Peat TJ, Gaikwad SM, Dubois W, Gyabaah-Kessie N, Zhang S, Gorjifard S, Phyo Z, Andres M, Hughitt VK, Simpson RM, Miller MA, Girvin AT, Taylor A, Williams D, D'Antonio N, Zhang Y, Rajagopalan A, Flietner E, Wilson K, Zhang X, Shinn P, Klumpp-Thomas C, McKnight C, Itkin Z, Chen L, Kazandijian D, Zhang J, Michalowski AM, Simmons JK, Keats J, Thomas CJ, Mock BA. Drug combinations identified by high-throughput screening promote cell cycle transition and upregulate Smad pathways in myeloma. Cancer Lett. 2023 Aug 1;568:216284. doi: 10.1016/j.canlet.2023.216284. Epub 2023 Jun 24. PMID: 37356470; PMCID: PMC10408729.
SEQUENCE No. (e.g., 1, 2, 3, etc.); […] (e.g., Cells, Incubation, Reagent, etc.); VALUE and DESCRIPTION.
1; Cells; 5 uL; white, solid bottom 1536-well Greiner assay plate.
2; Compounds; 23 nL; Kalypsis pin tool (Wako USA) equipped with a 1536-well pin head to transfer to the assay plates.
3; Incubation; 48 hours; 37C incubation.
4; Reagent;5uL; CellTiter Glo (Promega).
5; Detector; 425V; Luminescence; Viewlux PerkinElmer.
NOTES (numbers refer to Sequence numbers above)
1. The cell-based screening methods employed in this study were like those previously published. Briefly, the corresponding myeloma cell lines were screened in 1,536-well plates with 500 cells, 5-uL per well for inhibition of cell viability (assessed by measuring ATP levels with CellTiterGlo).
2. NCATS MIPE 4.0 library of approved and investigational drugs were added using the Kalypsis pin tool. Wells treated with DMSO only for 100% viability and media only wells for 0% viability were used as controls.
3. The assay plates were covered and incubated for 48 hours in a 37C, 5% CO2 incubator with controlled humidity.
4. After 48 hours, CellTilter-GloTM luminescent substrate mix (Promega) reagent was added to the assay plate and plates we incubated for 5 min at room temperature.
5. Signal was measured as median relative luminescence units on a ViewLux (PerkinElmer) multiplate reader.
[1] Heske CM, Davis MI, Baumgart JT, Wilson K, Gormally MV, Chen L, Zhang X, Ceribelli M, Duveau DY, Guha R, Ferrer M, Arnaldez FI, Ji J, Tran HL, Zhang Y, Mendoza A, Helman LJ, Thomas CJ. Matrix Screen Identifies Synergistic Combination of PARP Inhibitors and Nicotinamide Phosphoribosyltransferase (NAMPT) Inhibitors in Ewing Sarcoma. Clin Cancer Res. 2017 Dec 1;23(23):7301-7311. doi: 10.1158/1078-0432.CCR-17-1121. Epub 2017 Sep 12. PMID: 28899971; PMCID: PMC6636827.
Potency is the fitted concentration of half-maximal effect.

| SMILES | Potency | viability, percent of control |
| --- | --- | --- |
| CN1C(C(=O)Nc2ccccn2)=C(O)c2sc(Cl)cc2S1(=O)=O | active: 3.72 µM | – |
| COc1cc(Nc2ncc(F)c(Nc3ccc4c(n3)N(COP(=O)(O)O)C(=O)C(C)(C)O4)n2)cc(OC)c1OC | active: 1.66 µM | – |
| Cn1cc(C=CC(=O)c2cccc(F)c2)cc1C=CC(=O)NO | inconclusive: 37.2 µM [cytotoxic, single point] | – |
| C[C@H]1[C@H](O)O[C@@H]2O[C@@]3(C)CC[C@@H]4[C@H](C)CC[C@@H]1[C@@]24OO3 | inconclusive: 13.2 µM [cytotoxic, partial curve] | – |
| OC[C@H]1O[C@@H](O[C@H]2[C@@H](O)[C@@](O)(CO)O[C@@H]2CO)[C@H](O)[C@@H](O)[C@@H]1O | inactive | – |
| O=S(=O)(O)c1ccc2cc(N=Nc3cc(S(=O)(=O)O)c4cccnc4c3O)ccc2c1 | inconclusive: 5.26 µM [cytotoxic, partial curve, poor fit] | – |
| CC[C@]12C=CCN3CC[C@@]4(c5cc([C@@]6(C(=O)OC)C[C@H]7C[C@@H](C(C)(F)F)CN(Cc8c6[nH]c6ccccc86)C7)c(OC)cc5N(C)[C@H]4[C@@](O)(C(=O)OC)[C@H]1OC(C)=O)[C@@H]32 | – | inconclusive: 23.5% [cytotoxic] |
| CN(Cc1cnc2nc(N)nc(N)c2n1)c1ccc(C(=O)N[C@@H](CCC(=O)O)C(=O)O)cc1 | inconclusive: 0.0469 µM [cytotoxic, full curve, poor fit] | – |
| COc1cc2nc(-c3cc(F)ccc3O)nc(N[C@@H]3CNC[C@@H]3C(C)(C)O)c2cc1OC | active: 7.43 µM | – |
| Cc1ncc(-c2ccnc(Nc3ccc(S(C)(=O)=O)cc3)n2)n1C(C)C | active: 2.35 µM | – |
| COc1cc2ncnc(Nc3cccc(Cl)c3)c2cc1OC | inconclusive: 29.6 µM [cytotoxic, single point] | – |
| Oc1c(Cl)cc(Cl)c2cccnc12 | active: 9.35 µM | – |
| COC1=C(OC)C(=O)C(CC=C(C)CCC=C(C)CCC=C(C)CCC=C(C)CCC=C(C)CCC=C(C)CCC=C(C)CCC=C(C)CCC=C(C)CCC=C(C)C)=C(C)C1=O | inactive | – |
| CC(C=CC=C(C)C=CC1=C(C)CCCC1(C)C)=CC=CC=C(C)C=CC=C(C)C=CC1=C(C)CCCC1(C)C | inactive | – |
| CCc1cc2c(cc1N1CCC(N3CCOCC3)CC1)C(C)(C)c1[nH]c3cc(C#N)ccc3c1C2=O | inconclusive: 4.18 µM [cytotoxic, full curve, poor fit] | – |
| N=C(N)c1ccc(OCCCCCOc2ccc(C(=N)N)cc2)cc1 | inconclusive: 9.35 µM [cytotoxic, partial curve] | – |
| O=C(CCCN1CCN(c2ccc(F)cc2)CC1)NC1c2ccccc2CSc2ccccc21 (stereo not given) | inconclusive: 11.8 µM [cytotoxic, partial curve] | – |
| COc1ccc(-c2ccc3c(N4CCOCC4)nc(N4C[C@@H](C)O[C@@H](C)C4)nc3n2)cc1CO | inconclusive: 1.18 µM [cytotoxic, full curve] | – |
| COc1cc(Cl)cn2c(-c3cccc(NC4CNC4)n3)cnc12 | inconclusive: 37.2 µM [cytotoxic, single point] | – |
| CC(C)CN(C[C@H](O)[C@H](Cc1ccccc1)NC(=O)O[C@H]1CCOC1)S(=O)(=O)c1ccc(N)cc1 | inconclusive: 29.6 µM [cytotoxic, single point] | – |

3 entries already listed, ordered by molar mass, rising:

| SMILES | Potency | viability, percent of control |
| --- | --- | --- |
| C[C@H]1[C@H](O)O[C@@H]2O[C@@]3(C)CC[C@@H]4[C@H](C)CC[C@@H]1[C@@]24OO3 | inconclusive: 13.2 µM [cytotoxic, partial curve] | – |
| COc1cc2nc(-c3cc(F)ccc3O)nc(N[C@@H]3CNC[C@@H]3C(C)(C)O)c2cc1OC | active: 7.43 µM | – |
| CCc1cc2c(cc1N1CCC(N3CCOCC3)CC1)C(C)(C)c1[nH]c3cc(C#N)ccc3c1C2=O | inconclusive: 4.18 µM [cytotoxic, full curve, poor fit] | – |

The list goes on:

| SMILES | Potency | viability, percent of control |
| --- | --- | --- |
| O[C@@H](CNC[C@H](O)[C@H]1CCc2cc(F)ccc2O1)[C@@H]1CCc2cc(F)ccc2O1 | active: 23.5 µM | – |
| OC1CCC(Nc2ncc3nc(Nc4c(F)cc(F)cc4F)n([C@@H]4CCOC4)c3n2)CC1 (stereo not given in full) | inconclusive: 23.5 µM [cytotoxic, single point] | – |
| O=C1NC(=O)C(c2cnc3ccccn23)=C1c1cn2c3c(cccc13)CN(C(=O)N1CCOCC1)CC2 | inconclusive: 0.0042 µM [cytotoxic, full curve] | – |
| Cc1c(C)c2c(c(C)c1O)CCC(C)(COc1ccc(CC3SC(=O)NC3=O)cc1)O2 (stereo not given) | inconclusive: 29.6 µM [cytotoxic, single point] | – |
| CCCCCCCN(CC)CCCC(O)c1ccc(NS(C)(=O)=O)cc1 (stereo not given) | inconclusive: 37.2 µM [cytotoxic, single point] | – |
| CC(C)(Sc1cc(C(C)(C)C)c(O)c(C(C)(C)C)c1)Sc1cc(C(C)(C)C)c(O)c(C(C)(C)C)c1 | inconclusive: 11.8 µM [cytotoxic, partial curve] | – |
| CS[C@H]1SC[C@@H]2C(=O)N(C)[C@H](C(C)C)C(=O)OC[C@H](NC(=O)c3cnc4ccccc4n3)C(=O)N[C@H](C)C(=O)N(C)[C@@H]1C(=O)N(C)[C@H](C(C)C)C(=O)OC[C@H](NC(=O)c1cnc3ccccc3n1)C(=O)N[C@H](C)C(=O)N2C | – | inconclusive: 5.55% [cytotoxic] |
| CC(N[C@H]1CCCC[C@H]1NC(=O)c1ccc(Cl)cc1)c1cccc2ccccc12 (stereo not given in full) | inconclusive: 23.5 µM [cytotoxic, single point] | – |
| CCOC(=O)[C@H]1O[C@H]1C(=O)N[C@@H](CC(C)C)C(=O)NCCC(C)C | inconclusive: 16.6 µM [cytotoxic, partial curve, poor fit] | – |
| CN(C)c1ccc(C(=C2C=CC(=[N+](C)C)C=C2)c2ccc(N(C)C)cc2)cc1 | – | inconclusive: 1.29% [cytotoxic] |
| O=C1Nc2ccc(I)cc2C1=Cc1cc(Br)c(O)c(Br)c1 | inconclusive: 16.6 µM [cytotoxic, partial curve, poor fit] | – |
| C=C1[C@H](n2cnc3c(=O)[nH]c(N)nc32)C[C@H](O)[C@H]1CO | inconclusive: 10.5 µM [cytotoxic, partial curve, poor fit] | – |
| CCOC(=O)[C@H](CCc1ccccc1)N[C@@H](C)C(=O)N1CCCC1C(=O)O (stereo not given in full) | inconclusive: 0.001 µM | – |
| CS(=O)(=O)c1ccc([C@@H](O)[C@@H](CO)NC(=O)C(Cl)Cl)cc1 | active: 9.35 µM | – |
| CCOc1cc(N2CCC(O)CC2)ccc1Nc1ncc2c(n1)N(C)c1ccccc1C(=O)N2C | active: 8.33 µM | – |
| NC(N)=NC(N)=NCCc1ccccc1 | active: 4.69 µM | – |
| CC12CC3CC(C)(C1)CC(N)(C3)C2 | inconclusive: 37.2 µM [cytotoxic, single point] | – |
| C[C@H](CCC(=O)O)[C@H]1CCC2C3C[C@H](O)[C@@H]4C[C@H](O)CC[C@]4(C)C3CC[C@@]21C (stereo not given in full) | inconclusive: 0.0037 µM [cytotoxic, full curve, poor fit] | – |
| CCn1c(-c2nonc2N)nc2cncc(CNC3CCNCC3)c21 | active: 2.96 µM | – |
| Cc1c(-c2cccc3c(CCCOc4cccc5ccccc45)c(C(=O)O)n(Cc4cccnc4)c23)c(COc2ccc(N3CCN([S+](=O)([O-])N(C)C)CC3)cc2)nn1C | inconclusive: 29.6 µM [cytotoxic, partial curve] | – |
